The other results are listed elsewhere or left out.
compound: CNC(=O)C1=CC=CC=C1NC2=NC(=NC=C2Cl)NC3=C(C=C(C=C3)N4CCOCC4)OC; assay: log2 fold change, soluble protein after heating vs DMSO (PISA); higher = thermal stabilisation; K562 cells, 10 uM, 30 min; active = over 0.2 and 3.5 SD of the protein, either way, in both replicates (recomputed)
How it was run: (§1)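 K562 cells at 2×10^6 cells/mL were exposed to 10 μM compound for 30 min, then aliquots were heated for 3 min across 48°C-58°C, pooled, and extracted in PBS containing 0.5% NP-40 at 4°C. The supernatant after 21,000xg for 90 min was taken as soluble protein and measured by TMTpro 16plex LC-MS/MS with channel sums equalised. Thermal stability is reported relative to control samples, with values from duplicates. Fold changes are given on a log2 scale.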

Amino acid sequences for entries named in this document (tags omitted). A change or cut given only in a name is not applied to a line headed by its entry.
UniProt P28300: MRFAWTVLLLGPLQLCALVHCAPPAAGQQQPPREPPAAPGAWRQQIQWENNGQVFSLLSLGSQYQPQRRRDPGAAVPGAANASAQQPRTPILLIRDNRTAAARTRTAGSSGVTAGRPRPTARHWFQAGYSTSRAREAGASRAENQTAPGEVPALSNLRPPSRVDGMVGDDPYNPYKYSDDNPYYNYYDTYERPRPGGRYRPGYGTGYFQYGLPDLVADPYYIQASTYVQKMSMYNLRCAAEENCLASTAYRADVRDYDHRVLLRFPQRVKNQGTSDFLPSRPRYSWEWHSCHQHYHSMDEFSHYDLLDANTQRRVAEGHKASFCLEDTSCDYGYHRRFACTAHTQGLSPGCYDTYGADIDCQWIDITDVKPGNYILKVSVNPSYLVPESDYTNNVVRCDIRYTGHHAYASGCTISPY
UniProt Q6P1M3: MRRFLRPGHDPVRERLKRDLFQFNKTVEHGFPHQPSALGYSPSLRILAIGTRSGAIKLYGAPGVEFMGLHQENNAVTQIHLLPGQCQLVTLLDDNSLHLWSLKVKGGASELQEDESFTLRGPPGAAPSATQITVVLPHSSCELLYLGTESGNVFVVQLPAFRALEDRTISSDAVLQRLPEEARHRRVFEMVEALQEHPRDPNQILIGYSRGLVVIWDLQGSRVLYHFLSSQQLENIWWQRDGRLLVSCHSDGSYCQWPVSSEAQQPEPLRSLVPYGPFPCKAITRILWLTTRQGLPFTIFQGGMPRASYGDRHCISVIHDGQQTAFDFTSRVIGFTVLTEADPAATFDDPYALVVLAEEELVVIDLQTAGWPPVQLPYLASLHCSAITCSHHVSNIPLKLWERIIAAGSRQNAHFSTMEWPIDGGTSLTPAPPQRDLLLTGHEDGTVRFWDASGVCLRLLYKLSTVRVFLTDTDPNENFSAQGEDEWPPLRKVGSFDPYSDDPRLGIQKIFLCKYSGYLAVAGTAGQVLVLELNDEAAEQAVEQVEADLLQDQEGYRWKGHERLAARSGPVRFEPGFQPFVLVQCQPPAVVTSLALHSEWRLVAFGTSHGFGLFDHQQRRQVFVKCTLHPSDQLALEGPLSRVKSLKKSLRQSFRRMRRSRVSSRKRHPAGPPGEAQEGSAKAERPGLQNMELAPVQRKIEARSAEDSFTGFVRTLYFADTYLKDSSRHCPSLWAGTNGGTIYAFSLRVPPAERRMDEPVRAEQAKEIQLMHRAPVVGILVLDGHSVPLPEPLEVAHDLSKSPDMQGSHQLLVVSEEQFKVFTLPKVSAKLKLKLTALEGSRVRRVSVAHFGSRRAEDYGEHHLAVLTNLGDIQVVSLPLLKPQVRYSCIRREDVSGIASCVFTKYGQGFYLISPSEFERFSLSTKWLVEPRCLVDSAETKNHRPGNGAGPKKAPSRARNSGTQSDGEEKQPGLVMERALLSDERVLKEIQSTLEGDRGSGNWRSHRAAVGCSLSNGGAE
UniProt Q9BT23: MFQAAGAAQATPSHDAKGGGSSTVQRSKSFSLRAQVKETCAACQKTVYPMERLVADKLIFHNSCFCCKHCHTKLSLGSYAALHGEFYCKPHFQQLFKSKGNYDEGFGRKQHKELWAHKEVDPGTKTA
UniProt O15243: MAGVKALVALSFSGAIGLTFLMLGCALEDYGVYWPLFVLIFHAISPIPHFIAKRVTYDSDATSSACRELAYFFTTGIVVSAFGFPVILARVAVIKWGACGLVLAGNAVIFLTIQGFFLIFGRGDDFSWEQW
UniProt Q6ZUX7: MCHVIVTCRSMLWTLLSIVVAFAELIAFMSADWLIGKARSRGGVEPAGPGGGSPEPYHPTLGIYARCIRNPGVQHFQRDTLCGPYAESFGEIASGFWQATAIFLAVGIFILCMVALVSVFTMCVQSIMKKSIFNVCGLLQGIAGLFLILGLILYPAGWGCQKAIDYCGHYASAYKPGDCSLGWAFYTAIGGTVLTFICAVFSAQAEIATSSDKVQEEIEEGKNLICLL
UniProt Q9BQD3: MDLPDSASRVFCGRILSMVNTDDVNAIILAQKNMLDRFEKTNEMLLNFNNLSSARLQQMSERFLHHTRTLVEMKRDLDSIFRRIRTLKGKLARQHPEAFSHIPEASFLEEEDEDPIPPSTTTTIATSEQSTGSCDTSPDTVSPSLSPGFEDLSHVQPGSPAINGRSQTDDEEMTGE
UniProt Q96GY3: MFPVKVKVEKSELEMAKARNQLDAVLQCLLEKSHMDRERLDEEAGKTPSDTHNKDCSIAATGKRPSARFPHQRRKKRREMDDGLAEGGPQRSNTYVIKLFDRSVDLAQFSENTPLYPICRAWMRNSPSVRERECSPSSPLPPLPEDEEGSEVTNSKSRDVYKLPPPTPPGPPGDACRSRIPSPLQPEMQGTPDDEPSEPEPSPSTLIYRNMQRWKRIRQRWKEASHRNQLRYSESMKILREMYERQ
UniProt Q8NG48: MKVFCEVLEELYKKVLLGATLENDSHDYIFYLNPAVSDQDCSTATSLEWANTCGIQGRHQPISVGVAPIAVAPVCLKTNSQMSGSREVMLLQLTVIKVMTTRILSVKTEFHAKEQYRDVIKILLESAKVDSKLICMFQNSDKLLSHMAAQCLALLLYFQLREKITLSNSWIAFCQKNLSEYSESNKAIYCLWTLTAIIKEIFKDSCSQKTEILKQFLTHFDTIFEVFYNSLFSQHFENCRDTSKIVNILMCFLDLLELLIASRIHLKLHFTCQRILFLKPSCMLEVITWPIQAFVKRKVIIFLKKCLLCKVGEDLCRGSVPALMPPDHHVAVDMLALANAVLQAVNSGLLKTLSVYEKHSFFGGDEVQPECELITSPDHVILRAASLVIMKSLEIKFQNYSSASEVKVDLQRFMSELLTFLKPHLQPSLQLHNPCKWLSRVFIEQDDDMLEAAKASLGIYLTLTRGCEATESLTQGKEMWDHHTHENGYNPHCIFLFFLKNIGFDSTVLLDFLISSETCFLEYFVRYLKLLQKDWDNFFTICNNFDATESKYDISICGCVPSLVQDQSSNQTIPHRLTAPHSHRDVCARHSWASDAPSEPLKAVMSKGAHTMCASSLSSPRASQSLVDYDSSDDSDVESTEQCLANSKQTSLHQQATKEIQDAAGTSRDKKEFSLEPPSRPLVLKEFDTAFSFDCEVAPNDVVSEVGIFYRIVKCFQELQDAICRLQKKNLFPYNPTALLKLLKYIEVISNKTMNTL
UniProt Q96FQ7: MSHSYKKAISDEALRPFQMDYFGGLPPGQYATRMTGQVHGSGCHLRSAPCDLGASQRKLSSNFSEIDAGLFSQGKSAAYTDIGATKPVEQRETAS
UniProt P13473: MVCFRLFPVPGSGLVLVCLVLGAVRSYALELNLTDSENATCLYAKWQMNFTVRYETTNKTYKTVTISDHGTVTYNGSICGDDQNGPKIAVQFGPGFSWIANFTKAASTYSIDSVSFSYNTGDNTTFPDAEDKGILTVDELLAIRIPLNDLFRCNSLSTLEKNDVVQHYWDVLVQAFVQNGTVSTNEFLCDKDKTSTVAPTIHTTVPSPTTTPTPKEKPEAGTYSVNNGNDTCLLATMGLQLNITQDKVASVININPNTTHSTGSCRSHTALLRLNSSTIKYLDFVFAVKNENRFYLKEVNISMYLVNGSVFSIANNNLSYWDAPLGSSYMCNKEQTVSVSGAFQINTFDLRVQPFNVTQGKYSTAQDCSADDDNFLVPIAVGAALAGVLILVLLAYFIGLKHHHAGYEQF
UniProt Q15048: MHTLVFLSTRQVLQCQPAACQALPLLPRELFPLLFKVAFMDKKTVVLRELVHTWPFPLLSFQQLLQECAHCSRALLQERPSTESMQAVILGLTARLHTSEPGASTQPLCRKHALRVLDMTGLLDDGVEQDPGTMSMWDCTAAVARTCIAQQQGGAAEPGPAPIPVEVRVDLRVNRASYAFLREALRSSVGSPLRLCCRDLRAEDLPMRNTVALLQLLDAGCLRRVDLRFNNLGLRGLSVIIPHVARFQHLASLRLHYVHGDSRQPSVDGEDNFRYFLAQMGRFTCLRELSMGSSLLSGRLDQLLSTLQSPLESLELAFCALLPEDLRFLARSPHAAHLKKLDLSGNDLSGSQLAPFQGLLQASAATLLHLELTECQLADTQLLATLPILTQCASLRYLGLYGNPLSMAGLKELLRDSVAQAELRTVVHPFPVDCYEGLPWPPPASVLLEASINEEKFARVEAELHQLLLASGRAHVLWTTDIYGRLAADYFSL
UniProt Q15345: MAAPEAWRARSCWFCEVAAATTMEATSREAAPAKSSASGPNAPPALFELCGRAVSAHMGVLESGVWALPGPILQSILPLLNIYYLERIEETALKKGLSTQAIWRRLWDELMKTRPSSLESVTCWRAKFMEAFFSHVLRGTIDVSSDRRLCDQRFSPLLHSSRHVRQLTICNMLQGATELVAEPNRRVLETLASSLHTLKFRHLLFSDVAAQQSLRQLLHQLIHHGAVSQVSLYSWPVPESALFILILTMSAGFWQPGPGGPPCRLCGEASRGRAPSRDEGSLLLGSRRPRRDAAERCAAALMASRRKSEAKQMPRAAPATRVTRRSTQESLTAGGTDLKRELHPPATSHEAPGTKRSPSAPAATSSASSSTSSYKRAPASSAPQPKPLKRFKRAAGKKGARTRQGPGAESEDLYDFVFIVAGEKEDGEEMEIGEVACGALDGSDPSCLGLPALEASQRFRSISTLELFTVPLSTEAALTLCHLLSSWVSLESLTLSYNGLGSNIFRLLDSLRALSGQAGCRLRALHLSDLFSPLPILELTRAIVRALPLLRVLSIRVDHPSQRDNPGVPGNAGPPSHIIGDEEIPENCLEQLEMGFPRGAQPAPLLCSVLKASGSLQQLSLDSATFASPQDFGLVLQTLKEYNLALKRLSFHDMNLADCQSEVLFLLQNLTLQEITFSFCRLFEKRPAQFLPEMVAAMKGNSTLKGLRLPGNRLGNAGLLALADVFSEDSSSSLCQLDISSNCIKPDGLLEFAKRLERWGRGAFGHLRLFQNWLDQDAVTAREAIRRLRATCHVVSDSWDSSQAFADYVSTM
UniProt Q86VI4: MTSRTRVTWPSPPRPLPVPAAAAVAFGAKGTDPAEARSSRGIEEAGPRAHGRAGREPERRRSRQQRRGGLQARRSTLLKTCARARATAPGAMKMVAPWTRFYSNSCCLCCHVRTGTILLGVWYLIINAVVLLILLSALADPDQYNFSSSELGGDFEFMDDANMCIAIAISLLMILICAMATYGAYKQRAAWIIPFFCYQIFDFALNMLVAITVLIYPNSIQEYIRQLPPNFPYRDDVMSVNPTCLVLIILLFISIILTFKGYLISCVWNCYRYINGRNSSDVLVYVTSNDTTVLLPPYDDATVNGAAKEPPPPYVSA
UniProt Q5TKA1: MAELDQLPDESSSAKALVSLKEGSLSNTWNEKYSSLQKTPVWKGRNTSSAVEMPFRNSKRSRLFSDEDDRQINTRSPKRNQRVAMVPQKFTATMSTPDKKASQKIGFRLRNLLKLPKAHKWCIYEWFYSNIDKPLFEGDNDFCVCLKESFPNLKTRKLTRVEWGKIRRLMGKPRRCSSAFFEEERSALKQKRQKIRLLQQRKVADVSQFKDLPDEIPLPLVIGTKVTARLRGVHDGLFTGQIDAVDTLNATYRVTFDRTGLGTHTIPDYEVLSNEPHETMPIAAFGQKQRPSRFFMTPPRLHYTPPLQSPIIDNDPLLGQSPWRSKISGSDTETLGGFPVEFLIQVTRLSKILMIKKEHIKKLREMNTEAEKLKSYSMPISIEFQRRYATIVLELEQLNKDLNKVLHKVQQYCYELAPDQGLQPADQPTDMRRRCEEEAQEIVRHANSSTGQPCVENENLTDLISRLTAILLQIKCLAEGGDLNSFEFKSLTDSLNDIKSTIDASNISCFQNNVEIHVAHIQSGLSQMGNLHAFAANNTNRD
UniProt Q9GZZ8: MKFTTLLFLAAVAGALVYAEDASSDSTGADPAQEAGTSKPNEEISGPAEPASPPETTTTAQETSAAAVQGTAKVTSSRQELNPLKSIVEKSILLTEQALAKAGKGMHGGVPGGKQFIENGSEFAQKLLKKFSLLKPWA
UniProt P17931, whole entry, looked up: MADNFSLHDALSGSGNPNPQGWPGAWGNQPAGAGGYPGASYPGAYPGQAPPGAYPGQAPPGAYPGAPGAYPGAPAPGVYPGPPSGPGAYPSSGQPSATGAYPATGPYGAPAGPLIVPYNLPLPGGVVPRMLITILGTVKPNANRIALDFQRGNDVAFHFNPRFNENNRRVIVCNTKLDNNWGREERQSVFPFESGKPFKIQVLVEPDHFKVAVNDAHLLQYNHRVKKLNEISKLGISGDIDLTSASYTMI
UniProt Q13571: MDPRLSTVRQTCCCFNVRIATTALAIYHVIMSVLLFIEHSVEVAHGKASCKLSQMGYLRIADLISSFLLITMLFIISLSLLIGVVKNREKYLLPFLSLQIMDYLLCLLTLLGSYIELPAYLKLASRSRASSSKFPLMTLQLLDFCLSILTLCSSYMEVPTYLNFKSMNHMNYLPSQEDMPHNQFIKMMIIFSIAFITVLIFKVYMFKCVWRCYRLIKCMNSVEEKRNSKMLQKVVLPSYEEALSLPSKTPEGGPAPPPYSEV
UniProt Q52LA3: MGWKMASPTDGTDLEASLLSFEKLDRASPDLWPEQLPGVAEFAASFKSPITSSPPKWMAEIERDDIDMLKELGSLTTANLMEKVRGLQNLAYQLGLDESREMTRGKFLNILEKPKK

Row | Target | log2 fold change
1 | LOX (UniProt P28300) | inactive: -0.303
2 | LLGL2 (UniProt Q6P1M3) | inactive: -0.104
3 | LIMD2 (UniProt Q9BT23) | inactive: -0.058
4 | LEPROT (UniProt O15243) | inactive: 0.087
5 | LHFPL2 (UniProt Q6ZUX7) | inactive: 0.031
6 | KXD1 (UniProt Q9BQD3) | inactive: 0.008
7 | LIN37 (UniProt Q96GY3) | inactive: -0.216
8 | LINS1 (UniProt Q8NG48) | inactive: -0.031
9 | LINC00526 (UniProt Q96FQ7) | inactive: 0.09
10 | LAMP2 isoform 2 (UniProt P13473) | inactive: 0.027
11 | LAMA2 (UniProt P24043) | inactive: -0.253
12 | LDLRAP1 (UniProt Q5SW96) | inactive: -0.014
13 | LRRC14 (UniProt Q15048) | inactive: 0.031
14 | LRRC41 (UniProt Q15345) | inactive: 0.058
15 | LDHD (UniProt Q86WU2) | inactive: 0.096
16 | LAPTM4B (UniProt Q86VI4) | inactive: 0.007

compound: CNC(=O)c1ccc(Nc2ncc(C(F)(F)F)c(NCc3nccnc3N(C)S(C)(=O)=O)n2)cc1 [defactinib]; assay: as above
How it was run: as §1

Row | Target | log2 fold change
17 | LRP1 (UniProt Q07954) | inactive: -0.129
18 | LHFPL2 (UniProt Q6ZUX7) | inactive: -0.185
19 | LIN9 isoform 2 (UniProt Q5TKA1) | inactive: -0.05
20 | KXD1 (UniProt Q9BQD3) | inactive: -0.03
21 | LAMP2 isoform 2 (UniProt P13473) | inactive: 0.078
22 | LACRT (UniProt Q9GZZ8) | inactive: 0.028
23 | LRRC14 (UniProt Q15048) | inactive: 0.006

compound: CNCc1ccc(-c2[nH]c3cc(F)cc4c3c2CCNC4=O)cc1 [rucaparib]; assay: as above
How it was run: as §1

Row | Target | log2 fold change
24 | LLGL2 (UniProt Q6P1M3) | inactive: 0.179
25 | LARP1B, A0A3B3ISF0 | inactive: 0.252
26 | LIMD2 (UniProt Q9BT23) | inactive: -0.109
27 | LRP1 (UniProt Q07954) | inactive: -0.239
28 | LEPROT (UniProt O15243) | inactive: 0.028
29 | LGALS3BP (UniProt Q08380) | inactive: 0.007
30 | LIN9 isoform 2 (UniProt Q5TKA1) | inactive: -0.219
31 | KXD1 (UniProt Q9BQD3) | inactive: -0.051
32 | LOR (UniProt P23490) | inactive: -0.137
33 | LINC00526 (UniProt Q96FQ7) | inactive: 0.196
34 | LAMP2 isoform 2 (UniProt P13473) | inactive: 0.024
35 | LACRT (UniProt Q9GZZ8) | inactive: 0.053
36 | LRRC14 (UniProt Q15048) | inactive: 0.092
37 | LAPTM4B (UniProt Q86VI4) | inactive: 0
38 | LGALS3 (UniProt P17931) | inactive: -0.251

compound: CNc1nc(-c2ccc3c(N)n[nH]c3c2)cc(N2C[C@@H](C(=O)NC3CCCCC3)CC[C@H]2C)n1; assay: as above
How it was run: as §1

Row | Target | log2 fold change
39 | LAPTM5 (UniProt Q13571) | inactive: -0.138
40 | LMLN isoform 3 (UniProt Q96KR4) | inactive: -0.001
41 | LRP1 (UniProt Q07954) | inactive: -0.12
42 | LEPROT (UniProt O15243) | inactive: -0.25
43 | LIN52 (UniProt Q52LA3) | inactive: -0.059
44 | LAMB2 (UniProt P55268) | inactive: 0.048
45 | L1TD1 (UniProt Q5T7N2) | inactive: -0.193
46 | KXD1 (UniProt Q9BQD3) | inactive: -0.07
47 | LGALSL (UniProt Q3ZCW2) | inactive: -0.117
48 | LAMC1 (UniProt P11047) | inactive: 0.187
49 | LAMP2 isoform 2 (UniProt P13473) | inactive: -0.192
50 | LRRC14 (UniProt Q15048) | inactive: -0.003
51 | LGALS3 (UniProt P17931) | inactive: -0.029

compound: COC(=O)N[C@@H](C)CNc1nccc(-c2cn(C(C)C)nc2-c2cc(Cl)cc(NS(C)(=O)=O)c2F)n1 [encorafenib]; assay: as above
How it was run: as §1

Row | Target | log2 fold change
52 | LLGL2 (UniProt Q6P1M3) | inactive: 0.02
53 | LARP1B, A0A3B3ISF0 | inactive: 0.218
54 | LIMD2 (UniProt Q9BT23) | inactive: 0.058
55 | LRP1 (UniProt Q07954) | inactive: 0.053
56 | LEPROT (UniProt O15243) | inactive: -0.077
57 | LGALS3BP (UniProt Q08380) | inactive: -0.06
58 | LIN9 isoform 2 (UniProt Q5TKA1) | inactive: 0.205
59 | KXD1 (UniProt Q9BQD3) | inactive: 0.018
60 | LOR (UniProt P23490) | inactive: -0.09
61 | LINC00526 (UniProt Q96FQ7) | inactive: -0.019
62 | LAMP2 isoform 2 (UniProt P13473) | inactive: 0.043
63 | LACRT (UniProt Q9GZZ8) | inactive: -0.116
64 | LRRC14 (UniProt Q15048) | inactive: -0.049
65 | LAPTM4B (UniProt Q86VI4) | inactive: 0.009
66 | LGALS3 (UniProt P17931) | inactive: -0.343

compound: COC(=O)[C@H](CCSC)NC(=O)C1=C(C=C(C=C1)NC[C@H](CS)N)C2=CC=CC=C2; assay: as above
How it was run: as §1

Row | Target | log2 fold change
67 | LRP1 (UniProt Q07954) | inactive: 0.012
68 | LHFPL2 (UniProt Q6ZUX7) | inactive: -0.446
69 | LIN9 isoform 2 (UniProt Q5TKA1) | inactive: -0.204
70 | KXD1 (UniProt Q9BQD3) | inactive: 0.017
71 | LAMP2 isoform 2 (UniProt P13473) | inactive: -0.017
72 | LACRT (UniProt Q9GZZ8) | inactive: 0.253
73 | LRRC14 (UniProt Q15048) | inactive: 0.086

Reference: the supplement of paper PMC10849652
